Results published in US20090227563A1, “HERBICIDAL COMPOSITIONS HAVING IMPROVED EFFECT” (Bayer CropScience AG, priority 2005, published 2009).
Several values for one entry are separate records, joined by “and”; a condition that tells them apart may be missing. Equal values may be shown once. The name of at least one read-out is uncertain.

Test system: Lolium multiflorum (LOLMU)
Test: Glasshouse trial on activity boost, post-emergence spraying, visual rating
Assay type: in vivo
Conditions: 50 g/ha, RME (0.25%) + AMS (6.6 g/l)
Experimental: Seeds of monocot and dicot weeds and crop plants are sown in sandy loam soil in wood fibre pots or in plastic pots, and are covered with soil and cultivated under good growth conditions in the glasshouse and also, during the vegetation period, outdoors outside the glasshouse. 2-3 weeks after sowing, the trial plants are treated at the one- to three-leaf stage. The test compounds, formulated as wettable powders (WP) or liquids (EC), are applied by spraying to the plants and the soil surface in various doses, with a water application rate of 300 l/ha (converted) and with the addition of penetrants (0.2% to 0.4%) and where appropriate an ammonium salt. After the trial plants had stood in the glasshouse for about 3 to 4 weeks under optimum growth conditions, the activity of the products was rated visually in comparison to untreated controls (activity in %, i.e. 0%=no activity or as control, 100%=all plants died).
For rapeseed oil methyl ester (RME) the following tables specify concentration in % a.i. by volume for ammonium sulphate (AMS) in g/l in the spray liquor.
ALOMY=Alopecurus myosuroides AVEFA=Avena fatua LOLMU=Lolium multiflorum LOLRI=Lolium rigidum
ALOMY=Alopecurus myosuroides AVEFA=Avena fatua LOLMU=Lolium multiflorum SETVI=Setaria viridis

CCc1cc(-c2ccc(Cl)cc2)cc(C)c1C1=C(O)C2(CCC(OC)CC2)OC1=O (stereo not shown) [I-2-a-1]
Activity: 98% and 80%
